Measurements as given in US8691867B2, “Use of benzo-fused heterocycle sulfamide derivatives for the treatment of substance abuse and addiction” (Janssen Pharmaceutica NV, priority 2005, dated 2014).

Tested on: selectively-bred alcohol preferring rats
Test: Alcohol Preferring Rats In Vivo Model (two-bottle choice)
Design: species or system rat
Conditions: mean ± SEM; for 6 hr Water (water intake): 6 h after administration; for 24 hr Food (food intake) / 24 hr Water (water intake): 24 h after administration
Protocol: Adult male selectively-bred alcohol preferring rats (which are known in the art to be useful for the study of the effect of test compounds on vountary alcohol intake) were grouped into three groups: vehicle and Compound #8 (50 and 100 mg/kg, po). Rats were housed individually in wire mesh cages under a constant room temperature of 22±1° C. and 12:12 light-dark cycle (8:00-20:00, dark). The animals were fed Agway Prolab Rat/Mouse/ Hamster 3000 formula and water ad libitum.
Alcohol intake was determined using the standard two-bottle choice method. Animals were first given free access to water in a graduated Richter tube for 2 days. Then they were given access to only a solution of 10% (v/v) ethanol for 3 consecutive days. During this period animals became accustomed to drinking from Richter tubes and to the taste and pharmacological effects of alcohol. Thereafter, they were given free access to both water and a solution of 10% alcohol for at least 4 consecutive weeks and throughout the study period. Rats had free access to food. Water and alcohol intake were recorded at 4, 6 and 24 hours after the treatment, whereas food intake was measured at 24 hour. Animals' body weight was measured every day.
After establishment of a stable baseline for alcohol, food, and water intake, rats were administered either vehicle or Compound #8 via oral gavage using a cross-over design with random assignment. To be able to compare the efficacy of these compounds on alcohol intake with an established FDA-approved drug, naltrexone, was included as a positive control. Same rats were given an oral dose of naltrexone (20mg/kg). The interval between treatments was at least 3 days. Alcohol and water intake were recorded 4, 6 and 24 h after the drug administration and food intake was recorded at 24 hr. A total of 8-10 animals per group were used.
The results below are presented as means ±SEM. Alcohol intake (g/kg) was calculated by multiplying the volume of alcohol consumed in ml by 10% and 0.7893 (ethanol density)/body weight in kg. Alcohol preference, expressed as percentage, was calculated as follows: (volume of alcohol consumed in ml/total fluid intake in ml)×100 (Rezvani and Grady, 1994; Rezvani et al., 1997). Statistical differences between drug-treated and control groups were determined by using ANOVA and Turkey Student's t test for multiple comparison.

| Compound | 6 hr Water (water intake) (20 mg/kg oral) | 24 hr Food (food intake) (20 mg/kg oral) | 24 hr Water (water intake) (20 mg/kg oral) | 6 hr Water (water intake) (50 mg/kg po) | 24 hr Food (food intake) (50 mg/kg po) | 24 hr Water (water intake) (50 mg/kg po) | 6 hr Water (water intake) (100 mg/kg po) | 24 hr Food (food intake) (100 mg/kg po) | 24 hr Water (water intake) (100 mg/kg po) |
| --- | --- | --- | --- | --- | --- | --- | --- | --- | --- |
| O=C1CC[C@@]2(O)[C@H]3Cc4ccc(O)c5c4[C@@]2(CCN3CC2CC2)[C@H]1O5 [Naltrexone, naltrexone, reference compound] | 1.3 ± 0.6 | 18.9 ± 1.2 | 5.1 ± 1.9 | – | – | – | – | – | – |
| NS(=O)(=O)NC[C@H]1COc2cc(Cl)ccc2O1 [Compound #8, (2S)-(−)-N-(6-Chloro-2,3-dihydro-benzo[1,4]dioxin-2-ylmethyl)-sulfamide] | – | – | – | 2.2 ± 0.7 | 20.9 ± 0.9 | 5.3 ± 2 | 3.7 ± 1.1 | 18.9 ± 1.2 | 8.6 ± 2.3 |
